Drawing on publication PMC7503102, this text covers binding for seven substances.

Sequences of proteins named here, by UniProt entry; tags and fusion partners are left off. A change or cut given only in a name is not applied to a line headed by its entry. A line that says so, or that is headed by a name, gives the form on record, which may keep a tag or linker.
UniProt Q68DV7: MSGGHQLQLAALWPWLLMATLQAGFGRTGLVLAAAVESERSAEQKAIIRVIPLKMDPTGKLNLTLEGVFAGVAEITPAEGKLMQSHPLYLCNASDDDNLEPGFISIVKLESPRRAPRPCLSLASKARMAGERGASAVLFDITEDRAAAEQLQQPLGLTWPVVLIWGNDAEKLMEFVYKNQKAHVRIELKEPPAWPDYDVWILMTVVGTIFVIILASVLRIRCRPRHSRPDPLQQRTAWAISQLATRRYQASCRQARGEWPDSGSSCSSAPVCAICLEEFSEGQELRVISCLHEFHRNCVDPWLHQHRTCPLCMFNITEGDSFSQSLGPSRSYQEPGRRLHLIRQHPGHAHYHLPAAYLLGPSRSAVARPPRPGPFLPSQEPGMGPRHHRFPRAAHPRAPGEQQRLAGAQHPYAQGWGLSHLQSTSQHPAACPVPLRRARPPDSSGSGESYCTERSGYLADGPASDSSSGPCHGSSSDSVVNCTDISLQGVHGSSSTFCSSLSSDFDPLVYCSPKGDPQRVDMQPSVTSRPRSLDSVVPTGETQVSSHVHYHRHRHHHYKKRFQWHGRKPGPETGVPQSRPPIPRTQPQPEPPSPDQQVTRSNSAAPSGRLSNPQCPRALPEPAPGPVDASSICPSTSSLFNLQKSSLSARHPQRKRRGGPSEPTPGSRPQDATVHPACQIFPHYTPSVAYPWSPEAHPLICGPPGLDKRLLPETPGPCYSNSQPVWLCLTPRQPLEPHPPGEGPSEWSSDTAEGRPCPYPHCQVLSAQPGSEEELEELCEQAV
RNF43 ΔW564-P587 (Q68DV7, form named): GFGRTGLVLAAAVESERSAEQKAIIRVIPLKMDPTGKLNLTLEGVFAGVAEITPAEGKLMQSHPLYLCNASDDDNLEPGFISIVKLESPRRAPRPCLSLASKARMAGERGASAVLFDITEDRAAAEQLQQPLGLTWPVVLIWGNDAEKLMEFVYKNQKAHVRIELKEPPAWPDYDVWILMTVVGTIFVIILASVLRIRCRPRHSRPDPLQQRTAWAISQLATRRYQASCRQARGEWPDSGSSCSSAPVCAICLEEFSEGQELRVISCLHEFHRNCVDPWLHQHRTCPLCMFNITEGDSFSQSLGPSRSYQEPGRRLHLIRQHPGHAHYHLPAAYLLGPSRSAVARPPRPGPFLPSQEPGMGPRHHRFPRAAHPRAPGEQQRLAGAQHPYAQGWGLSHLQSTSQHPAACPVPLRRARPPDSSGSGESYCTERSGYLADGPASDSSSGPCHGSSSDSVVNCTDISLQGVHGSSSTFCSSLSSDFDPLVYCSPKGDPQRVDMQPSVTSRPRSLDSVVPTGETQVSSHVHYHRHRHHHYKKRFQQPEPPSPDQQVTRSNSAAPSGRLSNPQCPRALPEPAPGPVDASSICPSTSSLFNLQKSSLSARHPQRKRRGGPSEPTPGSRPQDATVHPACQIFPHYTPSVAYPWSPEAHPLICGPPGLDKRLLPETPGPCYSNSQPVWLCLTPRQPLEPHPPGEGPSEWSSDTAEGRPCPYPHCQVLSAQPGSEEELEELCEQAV
UniProt P25054: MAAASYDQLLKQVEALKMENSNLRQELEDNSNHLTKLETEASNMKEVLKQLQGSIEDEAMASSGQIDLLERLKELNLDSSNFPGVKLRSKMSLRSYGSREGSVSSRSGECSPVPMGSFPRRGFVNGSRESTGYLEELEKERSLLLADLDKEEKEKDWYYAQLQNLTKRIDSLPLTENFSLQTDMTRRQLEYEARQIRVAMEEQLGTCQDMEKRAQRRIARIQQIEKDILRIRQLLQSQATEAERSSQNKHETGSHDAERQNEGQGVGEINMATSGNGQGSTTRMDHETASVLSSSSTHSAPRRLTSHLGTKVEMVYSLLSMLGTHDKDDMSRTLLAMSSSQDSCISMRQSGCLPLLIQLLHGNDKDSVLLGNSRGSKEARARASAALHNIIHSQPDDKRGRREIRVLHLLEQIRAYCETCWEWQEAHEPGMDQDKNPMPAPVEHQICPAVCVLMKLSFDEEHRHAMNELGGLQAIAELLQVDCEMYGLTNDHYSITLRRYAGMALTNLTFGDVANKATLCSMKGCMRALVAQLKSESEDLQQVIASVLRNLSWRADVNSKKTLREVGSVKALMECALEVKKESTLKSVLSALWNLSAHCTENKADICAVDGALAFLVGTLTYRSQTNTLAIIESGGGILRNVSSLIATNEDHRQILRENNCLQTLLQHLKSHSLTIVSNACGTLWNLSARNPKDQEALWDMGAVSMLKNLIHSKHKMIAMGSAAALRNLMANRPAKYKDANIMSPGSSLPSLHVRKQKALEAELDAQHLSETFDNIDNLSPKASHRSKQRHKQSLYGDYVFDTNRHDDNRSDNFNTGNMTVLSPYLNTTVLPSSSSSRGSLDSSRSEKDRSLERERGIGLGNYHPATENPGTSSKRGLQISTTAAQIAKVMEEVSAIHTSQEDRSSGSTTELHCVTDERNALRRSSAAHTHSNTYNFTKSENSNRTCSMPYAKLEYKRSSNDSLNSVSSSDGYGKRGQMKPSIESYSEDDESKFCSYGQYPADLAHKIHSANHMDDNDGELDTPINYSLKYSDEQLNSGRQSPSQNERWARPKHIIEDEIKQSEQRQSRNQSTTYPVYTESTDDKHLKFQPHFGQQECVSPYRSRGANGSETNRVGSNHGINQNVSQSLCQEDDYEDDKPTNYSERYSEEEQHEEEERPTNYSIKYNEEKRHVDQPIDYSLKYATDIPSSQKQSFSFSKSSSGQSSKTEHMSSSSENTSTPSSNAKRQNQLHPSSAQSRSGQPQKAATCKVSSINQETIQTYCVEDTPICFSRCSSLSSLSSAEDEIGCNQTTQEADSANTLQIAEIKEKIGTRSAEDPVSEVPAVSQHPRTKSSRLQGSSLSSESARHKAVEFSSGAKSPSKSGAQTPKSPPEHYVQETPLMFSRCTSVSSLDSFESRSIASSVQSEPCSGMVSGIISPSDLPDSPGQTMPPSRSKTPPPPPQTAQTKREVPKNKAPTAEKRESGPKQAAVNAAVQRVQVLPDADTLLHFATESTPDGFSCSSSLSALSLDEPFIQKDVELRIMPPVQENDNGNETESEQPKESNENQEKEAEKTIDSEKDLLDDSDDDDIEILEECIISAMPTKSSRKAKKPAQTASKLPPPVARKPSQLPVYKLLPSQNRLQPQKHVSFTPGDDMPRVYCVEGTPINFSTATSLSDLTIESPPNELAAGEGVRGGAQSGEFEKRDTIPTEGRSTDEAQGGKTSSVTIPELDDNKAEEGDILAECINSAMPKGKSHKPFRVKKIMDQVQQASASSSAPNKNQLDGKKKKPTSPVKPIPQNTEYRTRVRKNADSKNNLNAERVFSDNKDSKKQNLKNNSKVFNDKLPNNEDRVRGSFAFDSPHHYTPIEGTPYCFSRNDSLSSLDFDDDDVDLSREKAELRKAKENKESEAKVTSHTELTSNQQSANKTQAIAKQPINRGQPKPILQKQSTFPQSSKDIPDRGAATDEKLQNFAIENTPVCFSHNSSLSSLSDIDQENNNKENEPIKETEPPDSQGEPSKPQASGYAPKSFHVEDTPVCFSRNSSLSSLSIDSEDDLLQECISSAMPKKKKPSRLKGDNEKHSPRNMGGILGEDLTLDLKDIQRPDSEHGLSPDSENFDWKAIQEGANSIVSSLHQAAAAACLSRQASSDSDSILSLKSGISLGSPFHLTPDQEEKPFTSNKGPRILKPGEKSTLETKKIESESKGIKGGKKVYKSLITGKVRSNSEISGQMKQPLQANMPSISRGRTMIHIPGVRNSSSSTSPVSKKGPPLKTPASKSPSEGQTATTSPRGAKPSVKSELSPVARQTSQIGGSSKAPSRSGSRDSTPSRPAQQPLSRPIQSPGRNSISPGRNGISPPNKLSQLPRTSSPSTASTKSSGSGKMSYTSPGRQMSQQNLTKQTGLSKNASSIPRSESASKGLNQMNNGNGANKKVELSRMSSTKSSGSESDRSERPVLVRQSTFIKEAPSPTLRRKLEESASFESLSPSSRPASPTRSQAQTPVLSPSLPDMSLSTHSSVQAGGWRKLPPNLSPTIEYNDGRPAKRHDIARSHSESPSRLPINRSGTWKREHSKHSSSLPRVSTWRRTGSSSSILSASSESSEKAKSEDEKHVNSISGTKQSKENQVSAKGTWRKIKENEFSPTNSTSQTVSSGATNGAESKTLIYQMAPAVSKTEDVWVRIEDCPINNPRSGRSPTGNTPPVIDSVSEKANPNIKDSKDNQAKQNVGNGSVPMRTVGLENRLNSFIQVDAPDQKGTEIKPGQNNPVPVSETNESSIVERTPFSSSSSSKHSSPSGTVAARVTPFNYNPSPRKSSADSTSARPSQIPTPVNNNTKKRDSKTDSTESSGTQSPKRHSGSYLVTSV
UniProt O15169: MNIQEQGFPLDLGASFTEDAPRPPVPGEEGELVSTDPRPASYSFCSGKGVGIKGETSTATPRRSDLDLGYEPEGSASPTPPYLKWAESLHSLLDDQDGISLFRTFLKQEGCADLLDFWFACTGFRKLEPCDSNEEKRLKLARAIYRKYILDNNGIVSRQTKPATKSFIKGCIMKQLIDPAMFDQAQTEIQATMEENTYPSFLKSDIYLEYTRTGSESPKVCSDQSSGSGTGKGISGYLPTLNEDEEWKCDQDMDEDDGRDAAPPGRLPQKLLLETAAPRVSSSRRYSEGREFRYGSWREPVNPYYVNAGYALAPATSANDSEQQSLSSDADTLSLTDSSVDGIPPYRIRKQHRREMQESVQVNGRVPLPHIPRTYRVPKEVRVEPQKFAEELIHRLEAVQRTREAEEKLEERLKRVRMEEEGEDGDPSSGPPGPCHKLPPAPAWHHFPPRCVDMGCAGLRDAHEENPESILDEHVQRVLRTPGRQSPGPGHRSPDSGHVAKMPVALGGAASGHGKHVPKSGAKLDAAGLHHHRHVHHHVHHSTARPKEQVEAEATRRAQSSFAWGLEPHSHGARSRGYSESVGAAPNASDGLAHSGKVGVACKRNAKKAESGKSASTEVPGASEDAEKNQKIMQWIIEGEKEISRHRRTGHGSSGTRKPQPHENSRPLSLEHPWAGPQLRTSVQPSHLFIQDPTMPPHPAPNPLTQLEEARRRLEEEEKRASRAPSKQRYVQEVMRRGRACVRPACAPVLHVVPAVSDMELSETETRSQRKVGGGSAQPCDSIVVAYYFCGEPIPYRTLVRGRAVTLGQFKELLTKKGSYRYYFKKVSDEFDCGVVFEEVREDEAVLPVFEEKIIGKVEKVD
UniProt P49674: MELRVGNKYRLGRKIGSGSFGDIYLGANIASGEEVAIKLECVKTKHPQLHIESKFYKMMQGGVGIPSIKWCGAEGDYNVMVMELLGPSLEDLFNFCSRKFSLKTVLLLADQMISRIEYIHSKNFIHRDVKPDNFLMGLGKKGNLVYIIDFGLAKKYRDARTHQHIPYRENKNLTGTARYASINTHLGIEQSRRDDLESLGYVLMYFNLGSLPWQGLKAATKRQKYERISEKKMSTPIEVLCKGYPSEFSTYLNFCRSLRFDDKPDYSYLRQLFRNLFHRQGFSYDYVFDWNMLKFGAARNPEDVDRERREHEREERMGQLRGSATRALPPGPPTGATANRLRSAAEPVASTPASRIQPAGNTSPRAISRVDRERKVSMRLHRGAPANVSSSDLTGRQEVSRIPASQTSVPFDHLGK
UniProt P49841: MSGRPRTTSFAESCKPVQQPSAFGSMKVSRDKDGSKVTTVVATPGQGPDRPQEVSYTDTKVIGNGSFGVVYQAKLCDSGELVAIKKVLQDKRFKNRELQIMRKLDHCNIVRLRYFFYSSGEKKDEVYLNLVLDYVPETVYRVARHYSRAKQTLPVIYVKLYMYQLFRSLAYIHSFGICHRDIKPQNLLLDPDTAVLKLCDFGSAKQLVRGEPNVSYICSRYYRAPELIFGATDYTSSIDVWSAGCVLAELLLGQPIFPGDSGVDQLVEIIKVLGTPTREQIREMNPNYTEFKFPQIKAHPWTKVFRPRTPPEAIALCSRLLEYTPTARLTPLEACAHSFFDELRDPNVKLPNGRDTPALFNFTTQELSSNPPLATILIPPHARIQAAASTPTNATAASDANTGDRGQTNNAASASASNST

These are yes or no findings as the source states them, for the method shown. Binding seen in cells or lysates may run through a third protein. Some entries that bind do so weakly or less than the wild type.

In assay [1] the target is RNF43–2×Flag–HA, wild type (human) (UniProt Q68DV7). Kind of assay: co-IP; RNF43 variants expressed in HEK293T cells precipitated from lysate (50 mM Tris pH 7.5, 150 mM NaCl, 0.5% Triton X-100, 5 mM EDTA), endogenous destruction complex components detected by Western blot; one panel in Axin2KO HEK293T cells treated with control or Axin1 siRNA for 4 days. (Immunoblotting shows a protein as a band on a membrane.)

The target in the next assay is RNF43 R519X (human) (UniProt Q68DV7). Described as above.
The target of another assay is RNF43 ΔW564-P587 (human) (UniProt Q68DV7). The description is as above.
The next assay concerns the target Flag‐APC‐V5 (UniProt P25054). Briefly: co-IP; V5-APC precipitated from lysate of HEK293T cells co-expressing RNF43 variants, RNF43 detected by Western blot.
In assay [2] the target is Axin1 (endogenous) (human (endogenous in HEK293T)) (UniProt O15169). Kind of assay: co-IP; endogenous Axin1 precipitated from lysate of HEK293T cells expressing RNF43 variants, RNF43 detected by Western blot.
Assay [3] has as its target RNF43–2×Flag–HA, wild type (human) (UniProt Q68DV7). Kind of assay: co-IP; RNF43 variants precipitated from lysate of HEK293T cells co-expressing myc-GSK3β, myc-GSK3β detected by Western blot.
For another assay, the target named is RNF43 P524X (human) (UniProt Q68DV7). Described as above.

In the case of “Axin1 (endogenous) (from UniProt O15169 1-862)”, the binding result (in assay [1]; in the assay with RNF43 R519X (human)) was “binds” in each case. “Casein kinase 1 epsilon (endogenous) (from UniProt P49674 1-416) (enzyme)”: the binding entry (in assay [1]; with RNF43 R519X (human); with RNF43 ΔW564-P587 (human)) was “binds” each time. On to “GSK3β (endogenous) (from UniProt P49841 1-420) (enzyme)”, for which the binding entry in assay [1] is “binds”. As for “RNF43 P524X (from UniProt Q68DV7 24-523) (domain or fragment)”, the binding result with Flag‐APC‐V5 is given as “binds”. For the substance “RNF43 R519X (from UniProt Q68DV7 24-518) (domain or fragment)”, the binding entry in assay [2] is “binds”. In the case of “RNF43–2×Flag–HA, wild type (from UniProt Q68DV7 24-783)”, the binding result (in the assay with Flag‐APC‐V5; in assay [2]) was “binds” each time. Take “myc‐GSK3β (from UniProt P49841 1-420) (enzyme)”: the binding entry (in assay [3]; with RNF43 P524X (human)) was “binds” in each case.
